Measurements as given in US12570695B2, “Bicyclic peptide ligands specific for EphA2” (priority 2019, dated 2026).
At least one compound was matched to its structure with a doubt left.

Protein sequences, listed by entry. Tags and fused reporters are not part of them. Residues count along the entry.
UniProt P29317, 24-976: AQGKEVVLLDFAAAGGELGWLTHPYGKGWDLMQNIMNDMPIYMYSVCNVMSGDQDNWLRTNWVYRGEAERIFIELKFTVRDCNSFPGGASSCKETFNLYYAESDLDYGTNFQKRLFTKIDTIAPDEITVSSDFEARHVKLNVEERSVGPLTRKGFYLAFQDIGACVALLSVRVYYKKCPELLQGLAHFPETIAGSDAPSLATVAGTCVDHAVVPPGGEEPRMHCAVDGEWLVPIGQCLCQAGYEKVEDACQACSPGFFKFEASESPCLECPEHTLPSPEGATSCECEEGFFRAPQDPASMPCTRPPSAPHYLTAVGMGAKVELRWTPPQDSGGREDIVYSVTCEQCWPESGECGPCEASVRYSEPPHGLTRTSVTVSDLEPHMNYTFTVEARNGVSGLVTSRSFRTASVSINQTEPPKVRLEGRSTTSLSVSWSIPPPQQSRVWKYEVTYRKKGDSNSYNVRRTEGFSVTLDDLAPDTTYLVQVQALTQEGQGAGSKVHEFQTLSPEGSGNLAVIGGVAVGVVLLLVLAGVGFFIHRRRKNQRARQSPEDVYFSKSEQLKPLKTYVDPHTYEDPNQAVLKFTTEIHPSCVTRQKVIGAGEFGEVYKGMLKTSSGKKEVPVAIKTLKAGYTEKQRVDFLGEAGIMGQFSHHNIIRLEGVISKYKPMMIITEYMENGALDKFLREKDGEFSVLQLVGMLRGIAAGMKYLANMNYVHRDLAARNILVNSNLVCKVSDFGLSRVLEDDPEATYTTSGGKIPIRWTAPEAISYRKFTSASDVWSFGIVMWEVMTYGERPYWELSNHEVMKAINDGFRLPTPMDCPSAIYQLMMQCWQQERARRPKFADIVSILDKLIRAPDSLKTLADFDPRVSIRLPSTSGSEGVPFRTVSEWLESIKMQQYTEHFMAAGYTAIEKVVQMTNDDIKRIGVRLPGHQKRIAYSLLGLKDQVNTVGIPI

Molecular target: EphA2 (Homo sapiens, UniProt P29317)
Assay: Kd of the fluorescent tracer (direct binding assay, not described)
Conditions: read-out: Kd of fluorescent tracer; known Kd used as defined value in the Ki fit

How did the Kd turn out when CC(C)[C@H](NC(=O)[C@H](CC(=O)O)NC(=O)[C@H](C)NC(=O)CN(C)C(=O)CN(C)C(=O)CN(C)C(=O)CN(C)C(=O)CN(C)C(=O)CNC(=O)c1ccc2c(c1)C(=O)OC21c2ccc(O)cc2Oc2cc(O)ccc21)C(=O)N[C@H](C(=O)N[C@H]1CSCCC(=O)N2CN3CN(C2)C(=O)CCSC[C@H](NC(=O)[C@H](Cc2c[nH]c4ccccc24)NC(=O)[C@H](Cc2ccccc2)NC(=O)[C@@H]2CCCN2C(=O)CNC(=O)[C@H](Cc2c[nH]c4ccccc24)NC(=O)[C@@H]2CCCN2C1=O)C(=O)N1CCC[C@H]1C(=O)N[C@@H](C(C)C)C(=O)N[C@@H](CC(N)=O)C(=O)N[C@@H](CCCNC(=N)N)C(=O)N1CCC[C@H]1C(=O)NCC(=O)N[C@H](C(=O)N[C@@H](C)C(N)=O)CSCCC3=O)[C@@H](C)O [BCY90] was run?
Its Kd is 2 nM.
